{"source": "patent US20250213587A1", "about": "“ITK INHIBITORS FOR INCREASING TH1 CELL ACTIVITY” (Corvus Pharmaceuticals, Inc., priority 2022, published 2025)", "test": "Glutathione reactivity assay", "format": "physicochemical", "conditions": "37° C., physiological glutathione, 5 h", "description": "The reactivity of acrylamides with glutathione was determined by measuring the disappearance of starting material and appearance of the adduct with glutathione in HPLC-MS spectra as a function of time. All the stock solutions and solvents were bubbled with nitrogen and all reactions were run under nitrogen at 37° C. A 250 μL volume of 20 mM test compound in DMSO was mixed with 250 μL of 2.0 mM indoprofen (used as internal standard) in DMSO and 4.5 mL of 11.1 mM glutathione in 100 mM potassium phosphate buffer (pH 7.4). Each reaction contained 1 mM test compound, 0.1 mM indoprofen, and 10 mM glutathione in 100 mM potassium phosphate buffer and 10% DMSO. The reaction mixture was stirred at 37° C. for 5 hours and sampled for HPLC-MS analysis every hour. The reaction product, internal standard and starting materials were separated by liquid chromatography using an Agilent Eclipse XBD-C18 column (4.6×150 mm, 3.5 um) and quantified by UV absorption. The mobile phase consisted of solvent A (water) and solvent B (acetonitrile), employing a gradient of 10% to 95% solvent B over 10 min.", "note": "At least one compound was matched to its structure with a doubt left."}
{"smiles": "C=CC(=O)N1CCC[C@@H](n2nc(-c3ccc(Oc4ccccc4)cc3)c3c(N)ncnc32)C1", "note": "[Ibrutinib, reference compound]", "values": [{"measurement": "loss in presence of glutathione", "result": 7.5, "unit": "%"}]}
